This is an account of results in publication PMC9433319.

Sequences of proteins named here, by UniProt entry; tags and fusion partners are left off.
UniProt Q9H9B1: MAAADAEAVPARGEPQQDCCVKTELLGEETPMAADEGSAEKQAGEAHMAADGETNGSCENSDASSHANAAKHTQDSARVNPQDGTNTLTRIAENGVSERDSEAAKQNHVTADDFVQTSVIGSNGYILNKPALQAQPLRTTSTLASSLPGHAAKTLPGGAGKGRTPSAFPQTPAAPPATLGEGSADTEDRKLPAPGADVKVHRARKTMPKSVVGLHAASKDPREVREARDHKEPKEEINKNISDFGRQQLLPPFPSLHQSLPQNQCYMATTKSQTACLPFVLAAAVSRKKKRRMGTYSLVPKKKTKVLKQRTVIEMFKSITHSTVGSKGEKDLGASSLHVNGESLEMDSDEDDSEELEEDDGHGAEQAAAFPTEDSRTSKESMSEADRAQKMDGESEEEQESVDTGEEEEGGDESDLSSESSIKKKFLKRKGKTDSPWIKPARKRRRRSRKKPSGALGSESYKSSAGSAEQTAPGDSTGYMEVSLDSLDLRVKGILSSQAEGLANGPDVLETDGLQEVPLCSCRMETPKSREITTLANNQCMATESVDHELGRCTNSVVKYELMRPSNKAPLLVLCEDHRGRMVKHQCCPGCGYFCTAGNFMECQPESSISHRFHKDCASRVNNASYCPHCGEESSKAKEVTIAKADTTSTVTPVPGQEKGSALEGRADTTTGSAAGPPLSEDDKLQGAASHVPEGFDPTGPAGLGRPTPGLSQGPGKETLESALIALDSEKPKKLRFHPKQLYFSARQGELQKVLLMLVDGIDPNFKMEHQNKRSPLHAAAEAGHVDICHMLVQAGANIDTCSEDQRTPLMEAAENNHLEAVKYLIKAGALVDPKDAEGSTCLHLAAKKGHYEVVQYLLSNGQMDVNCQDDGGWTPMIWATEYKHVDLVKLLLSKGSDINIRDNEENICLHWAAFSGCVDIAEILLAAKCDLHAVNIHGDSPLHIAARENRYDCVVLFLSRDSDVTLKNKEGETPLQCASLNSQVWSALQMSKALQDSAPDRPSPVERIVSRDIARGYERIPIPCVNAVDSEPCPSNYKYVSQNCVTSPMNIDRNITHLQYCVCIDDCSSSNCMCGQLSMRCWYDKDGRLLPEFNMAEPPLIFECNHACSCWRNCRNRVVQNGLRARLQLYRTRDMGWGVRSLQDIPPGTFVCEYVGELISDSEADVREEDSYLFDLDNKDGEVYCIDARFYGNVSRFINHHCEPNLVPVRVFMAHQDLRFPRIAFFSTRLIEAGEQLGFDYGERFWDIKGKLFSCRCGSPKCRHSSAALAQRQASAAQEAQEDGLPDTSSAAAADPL

Results are given in words; binding and its absence hold for the method and conditions named. For some of these results: In cells and extracts the contact can be indirect. Some entries that bind do so weakly or less than the wild type. For some of these results: Tags and fused reporters may be left off the sequences shown.

The target of test [1] is PRDM16 (expressed construct; tag not told) (UniProt A2A935). Description: co-IP; PRDM16–APPBP2 interaction in the presence of increasing EHMT1 (Fig. 5a); cells, tags and bait not told.
Test [2] concerns the target T1, GST-tagged PRDM16 fragment, amino acids 1–223 (UniProt A2A935).
T1 sequence: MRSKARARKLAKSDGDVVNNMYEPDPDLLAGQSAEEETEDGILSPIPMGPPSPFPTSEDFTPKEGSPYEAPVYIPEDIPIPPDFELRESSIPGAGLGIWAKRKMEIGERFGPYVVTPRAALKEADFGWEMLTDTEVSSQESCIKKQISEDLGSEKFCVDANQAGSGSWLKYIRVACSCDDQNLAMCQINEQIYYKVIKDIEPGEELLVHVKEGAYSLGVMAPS
Description: pull-down; GST-PRDM16 fragments preloaded on Glutathione-Sepharose beads, incubated with Myc-tagged APPBP2 protein for 2 h at 4 °C, washed four times, immunoblot; both purified. Background: In western blotting, separated proteins are transferred to a membrane and probed.

The target of test [3] is GST-tagged PRDM16 fragment, amino acids 881–1038 (UniProt A2A935). The test is described as above.
Test [4] deals with PRDM16 (expressed construct; tag not told) (UniProt A2A935). Briefly: co-IP; PRDM16 with WT or S561N APPBP2 (Extended Data Fig. 11a); cells, tags and bait not told.
The target in test [5] is PRDM16 (PR domain-containing 16), endogenous (mouse (endogenous in inguinal WAT-derived adipocytes)) (UniProt A2A935). Description: co-IP; endogenous proteins in differentiated inguinal adipocytes treated with MG132; immunoprecipitation and immunoblot.

Regarding “APPBP2, wild type (expressed construct; tag and species not told) (from UniProt Q92624 1-585)”, the binding entry in test [1] is given as “binds”. On the same count and under the same terms, to “EHMT1 (euchromatic histone-lysine N-methyltransferase 1) (from UniProt Q9H9B1 1-1298)” belongs “binds”. Consider “Myc-tagged APPBP2 (from UniProt Q92624 1-585)”, for which the binding entry in test [2] and in test [3] was “binds” in each case. Consider “human APPBP2 (S561N) variant (from UniProt Q92624 1-585)”, for which the binding result in test [4] is given as “binds”. Still for that read-out and setting: with “human APPBP2, wild type (in the comparison with S561N) (from UniProt Q92624 1-585)” the entry was “binds”.

B1: APPBP2, endogenous (protein, UniProt Q9DAX9 1-585)
chain: MAAVELEWIPETLYNTAISAVVDNYIRSRRDIRSLPENIQFDVYYKLYQQGRLCQLGSEFCELEVFAKVLRALDKRHLLHHCFQALMDHGVKVASVLAYSFSRRCSYIAESDAAVKEKAIQVGFVLGGFLSDAGWYSDAEKVFLSCLQLCTLHDEMLHWFRAVECCVRLLHVRNGNCKYHLGEETFKLAQTYMDKLSKHGQQANRAALYGELCALLFAKSHYDEAYKWCVEAMKEITAGLPVKVVVDVLRQASKACVVKREFKKAEQLIKHAVYLARDHFGSKHPKYSDTLLDYGFYLLNVDNICQSVAIYQAALDIRQSVFGGKNIHVATAHEDLAYSSYVHQYSSGKFDNALFHAERAIGIITHILPEDHLLLASSKRVKALILEEIAIDCHNKETEQRLLQEAHDLHLSSLQLAKKAFGEFNVQTAKHYGNLGRLYQSMRKFKEAEEMHIKAIQIKEQLLGQEDYEVALSVGHLASLYNYDMNQYENAEKLYLRSIAIGKKLFGEGYSGLEYDYRGLIKLYNSIGNYEKVFEYHNVLSNWNRLRDRQYSVTDALEDVSSSPQSTEEVVQSFLMAQNVEGPSC
As for B1, in test [5], the binding result was “binds”.
